Reference: patent US20040038284A1
Results are given in words; binding and its absence hold for the method and conditions named. Some results given as binding are weak or reduced against the parent protein; the word gives no strength.

Amino acid sequences for entries named in this document (tags omitted). Residues count along the entry.
UniProt P01137, residues 279-390: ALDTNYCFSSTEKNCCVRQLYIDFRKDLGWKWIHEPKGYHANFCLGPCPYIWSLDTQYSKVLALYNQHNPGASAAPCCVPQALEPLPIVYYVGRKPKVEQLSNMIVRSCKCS

Target: T1, third TGFβ receptor (RIII) (human) (UniProt Q03167)
T1 sequence (looked up): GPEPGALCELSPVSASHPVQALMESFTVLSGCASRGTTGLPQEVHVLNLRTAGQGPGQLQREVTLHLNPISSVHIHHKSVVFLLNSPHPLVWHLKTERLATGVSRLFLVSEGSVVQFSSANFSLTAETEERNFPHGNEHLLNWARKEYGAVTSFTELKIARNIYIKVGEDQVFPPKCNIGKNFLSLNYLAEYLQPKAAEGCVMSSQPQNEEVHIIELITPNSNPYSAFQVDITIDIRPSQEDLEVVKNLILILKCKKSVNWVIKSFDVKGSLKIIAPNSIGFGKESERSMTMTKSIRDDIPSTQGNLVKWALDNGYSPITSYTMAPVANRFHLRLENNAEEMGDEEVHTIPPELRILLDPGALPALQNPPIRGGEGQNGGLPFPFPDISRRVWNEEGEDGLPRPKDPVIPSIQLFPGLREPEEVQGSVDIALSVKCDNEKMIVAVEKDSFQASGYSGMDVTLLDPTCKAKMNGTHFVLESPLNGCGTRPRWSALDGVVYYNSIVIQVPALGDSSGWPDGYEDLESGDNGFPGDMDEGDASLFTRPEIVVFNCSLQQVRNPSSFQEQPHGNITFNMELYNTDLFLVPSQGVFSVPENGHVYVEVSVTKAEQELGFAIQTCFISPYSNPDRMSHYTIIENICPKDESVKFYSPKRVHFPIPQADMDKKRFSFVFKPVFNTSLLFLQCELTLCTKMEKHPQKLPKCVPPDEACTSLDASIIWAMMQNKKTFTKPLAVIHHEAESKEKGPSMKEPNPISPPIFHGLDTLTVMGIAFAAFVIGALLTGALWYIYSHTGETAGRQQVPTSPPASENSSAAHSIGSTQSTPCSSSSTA
Test: 125I-TGFβ 1 cross-linking to cell surface receptors of colon cancer cell lines, SDS-PAGE, autoradiography

binding: binds
Substance: 125I-labeled human TGFβ 1 (from UniProt P01137 279-390) (ligand)
